{"sequences": {"note": "The chains behind the UniProt entries cited, without tags or fusion partners. Where a name states a change or a piece, a line headed by the entry shows the natural chain unless it says otherwise.", "UniProt P08069": "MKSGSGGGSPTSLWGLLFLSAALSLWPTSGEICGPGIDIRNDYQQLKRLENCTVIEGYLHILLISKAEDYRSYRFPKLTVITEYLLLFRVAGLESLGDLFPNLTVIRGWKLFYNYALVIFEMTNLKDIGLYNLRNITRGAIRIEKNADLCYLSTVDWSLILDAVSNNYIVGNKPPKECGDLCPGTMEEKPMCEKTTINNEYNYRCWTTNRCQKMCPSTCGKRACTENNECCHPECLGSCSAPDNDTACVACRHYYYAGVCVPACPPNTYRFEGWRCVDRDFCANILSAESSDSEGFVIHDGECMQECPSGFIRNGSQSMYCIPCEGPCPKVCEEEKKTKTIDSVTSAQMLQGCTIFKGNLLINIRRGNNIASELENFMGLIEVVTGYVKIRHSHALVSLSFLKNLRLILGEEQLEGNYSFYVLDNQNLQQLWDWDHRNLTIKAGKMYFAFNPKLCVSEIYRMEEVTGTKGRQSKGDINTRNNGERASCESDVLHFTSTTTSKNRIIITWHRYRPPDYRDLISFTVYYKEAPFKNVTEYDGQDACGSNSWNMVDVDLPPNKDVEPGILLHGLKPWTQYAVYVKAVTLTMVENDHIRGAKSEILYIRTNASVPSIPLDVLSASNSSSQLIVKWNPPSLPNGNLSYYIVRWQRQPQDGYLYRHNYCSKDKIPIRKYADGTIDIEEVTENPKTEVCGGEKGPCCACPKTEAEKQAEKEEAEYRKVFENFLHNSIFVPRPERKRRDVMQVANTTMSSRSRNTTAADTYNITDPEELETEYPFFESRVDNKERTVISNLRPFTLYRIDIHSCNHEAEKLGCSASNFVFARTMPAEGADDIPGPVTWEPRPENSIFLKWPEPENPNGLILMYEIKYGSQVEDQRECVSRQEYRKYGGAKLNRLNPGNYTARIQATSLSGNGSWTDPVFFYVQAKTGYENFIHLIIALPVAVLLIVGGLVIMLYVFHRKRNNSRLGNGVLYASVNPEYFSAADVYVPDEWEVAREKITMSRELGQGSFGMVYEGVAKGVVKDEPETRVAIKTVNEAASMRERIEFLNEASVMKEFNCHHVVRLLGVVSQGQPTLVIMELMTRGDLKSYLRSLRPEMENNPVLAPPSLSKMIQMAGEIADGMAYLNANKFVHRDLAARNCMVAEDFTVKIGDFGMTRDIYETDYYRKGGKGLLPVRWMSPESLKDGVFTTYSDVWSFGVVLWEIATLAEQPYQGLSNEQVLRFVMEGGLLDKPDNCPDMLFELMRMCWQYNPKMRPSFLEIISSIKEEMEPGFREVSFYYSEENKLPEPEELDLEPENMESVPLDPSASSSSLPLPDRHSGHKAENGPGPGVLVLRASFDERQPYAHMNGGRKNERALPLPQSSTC"}, "source": "paper PMC10359273", "molecules": {"B1": {"name": "EPS15 Homology Domain containing 1 (EHD1) protein (protein, UniProt Q9H4M9 1-534)", "chain": "MFSWVSKDARRKKEPELFQTVAEGLRQLYAQKLLPLEEHYRFHEFHSPALEDADFDNKPMVLLVGQYSTGKTTFIRHLIEQDFPGMRIGPEPTTDSFIAVMHGPTEGVVPGNALVVDPRRPFRKLNAFGNAFLNRFMCAQLPNPVLDSISIIDTPGILSGEKQRISRGYDFAAVLEWFAERVDRIILLFDAHKLDISDEFSEVIKALKNHEDKIRVVLNKADQIETQQLMRVYGALMWSLGKIINTPEVVRVYIGSFWSHPLLIPDNRKLFEAEEQDLFKDIQSLPRNAALRKLNDLIKRARLAKVHAYIISSLKKEMPNVFGKESKKKELVNNLGEIYQKIEREHQISPGDFPSLRKMQELLQTQDFSKFQALKPKLLDTVDDMLANDIARLMVMVRQEESLMPSQVVKGGAFDGTMNGPFGHGYGEGAGEGIDDVEWVVGKDKPTYDEIFYTLSPVNGKITGANAKKEMVKSKLPNTVLGKIWKLADVDKDGLLDDEEFALANHLIKVKLEGHELPADLPPHLVPPSKRRHE"}}, "key": {"[1]": {"target": "T1, EPS15 Homology Domain containing 1 (EHD1) protein (human (endogenous in TC71 and A673)) (UniProt Q9H4M9)", "T1 sequence": "B1 chain", "assay": "co-IP; anti-IGF-1Rβ or anti-EHD1 immunoprecipitates from 1 mg lysate protein of TC71 and A673 cells (Triton-X-100 lysis buffer, protein A-Sepharose, overnight 4 °C, six washes), blotted for IGF-1Rβ or EHD1; cells serum/IGF-1-deprived for 24 h, then unstimulated or stimulated with IGF-1 (50 ng/ml) for 1 h"}, "[2]": {"target": "insulin-like growth factor 1 receptor (IGF-1R) (human (endogenous in TC71 and A673)) (UniProt P08069)", "assay": "co-IP; anti-IGF-1Rβ or anti-EHD1 immunoprecipitates from 1 mg lysate protein of TC71 and A673 cells (Triton-X-100 lysis buffer, protein A-Sepharose, overnight 4 °C, six washes), blotted for IGF-1Rβ or EHD1; cells serum/IGF-1-deprived for 24 h, then unstimulated or stimulated with IGF-1 (50 ng/ml) for 1 h"}}, "note": "Results are given in words; binding and its absence hold for the method and conditions named. In cells and extracts the contact can be indirect. Some results given as binding are weak or reduced against the parent protein; the word gives no strength.", "data": [{"molecule": "insulin-like growth factor 1 receptor (IGF-1R) (from UniProt P08069 31-736; P08069 741-1367)", "values": [{"measurement": "binding", "setting": "[1]", "value": "binds"}]}, {"molecule": "B1", "values": [{"measurement": "binding", "setting": "[2]", "value": "binds"}]}]}
